The list is a part of this screen's results and no random one: it gathers tests that were run many times, whatever their T/C, doses with no T/C, and many T/C values between a quarter and a half above the control. Other doses and runs of a compound stand elsewhere. T/C: endpoint of the treated group in % of that of the vehicle group. Some doses have a count of surviving animals in place of a T/C: the source files T/C as zero there, which appears to mark a toxic dose or a test without result, not a measured value. Some doses without a T/C left all or most animals alive at the check, yet need not have been tolerated: the source hardly ever lists a survival T/C far under the control, and the zero likely stands for such cases as well. Counts of survivors are from the toxicity check (mostly the fifth day) where no day follows; animals may have died later. Schedule codes are those of the source, read here as Q, the interval in days (D) or hours (H), X, the number of doses. Some schedules carry Z or #; the key to these is not given. Some structures stand for samples that the source files as different forms (salt, stereo form or complex); doses refer to the form tested. Where survival is the endpoint, this PubChem deposit counts one and a half times the control or more as active, and values a quarter to a half above the control carry no call in these data; other NCI protocols may use other cut-offs. Some entries hold several experiments; the values are given in rising order. Marks such as (2×) stand for listed records that agree. Some T/C values are followed by the survivors on the day toxicity was checked, most often the fifth; without a count, all were alive then.
Tested on: L1210 leukemia ip in BDF1 mice, survival T/C
Test: NCI In Vivo Anticancer Drug Screen. Data for tumor model L1210 Leukemia (intraperitoneal) in B6D2F1 (BDF1) mice
Details: T/C endpoint: mean survival time, higher T/C = longer survival
[1] = dose: 100.0 mg/kg/injection, schedule: Q01DX009 (ip), vehicle: saline
[2] = dose: 200.0 mg/kg/injection, schedule: Q01DX009 (ip), vehicle: saline
[3] = dose: 400.0 mg/kg/injection, schedule: Q04DX003 (ip), vehicle: Klucel (hydroxypropylcellulose) (HPC)
[4] = dose: 10.0 mg/kg/injection, schedule: Q01DX009 (ip), vehicle: saline
[5] = dose: 400.0 mg/kg/injection, schedule: Q01DX001 (ip), vehicle: carboxymethylcellulose (CMC)
[6] = dose: 200.0 mg/kg/injection, schedule: Q04DX003 (ip), vehicle: saline
[7] = dose: 400.0 mg/kg/injection, schedule: Q04DX003 (ip), vehicle: saline
[8] = dose: 400.0 mg/kg/injection, schedule: Q01DX001 (ip), vehicle: saline
[9] = dose: 200.0 mg/kg/injection, schedule: Q04DX003 (ip), vehicle: Klucel (hydroxypropylcellulose) (HPC)
[10] = dose: 200.0 mg/kg/injection, schedule: Q01DX009 (ip), vehicle: Klucel (hydroxypropylcellulose) (HPC)
[11] = dose: 400.0 mg/kg/injection, schedule: Q01DX009 (ip), vehicle: Klucel (hydroxypropylcellulose) (HPC)

[O-][n+]1ccccc1Br
survivor count (dose: 100.0 mg/kg/injection, schedule: Q01DX009 (ip), vehicle: water): 5 of 6 | survivor count (dose: 200.0 mg/kg/injection, schedule: Q01DX009 (ip), vehicle: water): 3 of 6 | survivor count (dose: 400.0 mg/kg/injection, schedule: Q01DX009 (ip), vehicle: water): 0 of 6 | survivor count (dose: 400.0 mg/kg/injection, schedule: Q04DX003 (ip), vehicle: water): 0 of 6

COc1ccc2nc3cc(Cl)ccc3c(NCCCSCCCl)c2n1
T/C (dose: 4.0 mg/kg/injection, schedule: Q01DX009 (ip), vehicle: saline): 125 % of control | survivor count (dose: 16.0 mg/kg/injection, schedule: Q01DX009 (ip), vehicle: saline): 3 of 6 | survivor count (dose: 25.0 mg/kg/injection, schedule: Q01DX009 (ip), vehicle: saline): 1 of 6 | survivor count (dose: 50.0 mg/kg/injection, schedule: Q01DX009 (ip), vehicle: saline): 2 of 6 | survivor count (dose: 75.0 mg/kg/injection, schedule: Q01DX009 (ip), vehicle: saline): 3 of 6 | survivor count [1]: 0 of 6

COC(OC)c1[nH]c(=S)[nH]c(=O)c1Cc1cccc(Cl)c1
survivor count [2]: 6 of 6

CC1(C)N=C(N)N=C(N)N1CCCOc1ccc(NC(=O)Nc2cccc(S(=O)(=O)F)c2)cc1
survivor count (dose: 100.0 mg/kg/injection, schedule: Q01DX001 (ip), vehicle: saline with Tween-80): 3 of 6

CC(=O)SC1CS(=O)(=O)CC1SC(C)=O (stereo unspecified)
survivor count [3]: 0 of 6

CC1(C)OCC(CO)(Nc2nc(N3CC3)nc(N3CC3)n2)CO1
T/C (dose: 1.25 mg/kg/injection, schedule: Q01DX009 (ip), vehicle: saline): 129 % of control [5 of 6 alive] | survivor count [4]: 5 of 6

NCC(=O)c1ccc(O)c(O)c1
T/C (dose: 100.0 mg/kg/injection, schedule: Q01DX Z (ip), vehicle: methylcellulose (MC)): 126 % of control | T/C (dose: 132.0 mg/kg/injection, schedule: Q01DX009 (ip), vehicle: saline): 128 and 141 % of control | T/C (dose: 175.0 mg/kg/injection, schedule: Q01DX Z (ip), vehicle: carboxymethylcellulose (CMC)): 126 % of control | T/C (dose: 175.0 mg/kg/injection, schedule: Q01DX Z (ip), vehicle: methylcellulose (MC)): 126 % of control | T/C [2]: 135 [5 of 6 alive] and 136 % of control (2×) | T/C (dose: 300.0 mg/kg/injection, schedule: Q01DX009 (ip), vehicle: saline): 133 and 142 % of control | T/C (dose: 394.0 mg/kg/injection, schedule: Q01DX Z (ip), vehicle: carboxymethylcellulose (CMC)): 131 % of control | T/C (dose: 400.0 mg/kg/injection, schedule: Q01DX Z (ip), vehicle: carboxymethylcellulose (CMC)): 129 % of control | T/C (dose: 600.0 mg/kg/injection, schedule: Q01DX Z (ip), vehicle: carboxymethylcellulose (CMC)): 128 % of control [5 of 6 alive] | T/C (dose: 600.0 mg/kg/injection, schedule: Q01DX Z (ip), vehicle: methylcellulose (MC)): 129 % of control | T/C (dose: 750.0 mg/kg/injection, schedule: Q01DX Z (ip), vehicle: methylcellulose (MC)): 137 % of control | survivor count (dose: 896.0 mg/kg/injection, schedule: Q01DX Z (ip), vehicle: carboxymethylcellulose (CMC)): 6 of 6

NC(=O)NOC(=O)c1ccccc1
T/C (dose: 200.0 mg/kg/injection, schedule: Q01DX Z (ip), vehicle: other): 140 % of control | T/C (dose: 400.0 mg/kg/injection, schedule: Q01DX Z (ip), vehicle: other): 146 % of control

O=C(O)COc1ccc(Cl)cc1Cl (tested in a mixture with another compound)
survivor count (dose: 100.0 mg/kg/injection, schedule: Q04DX003 (ip), vehicle: saline): 1 of 6 | survivor count (dose: 200.0 mg/kg/injection, schedule: Q01DX001 (ip), vehicle: carboxymethylcellulose (CMC)): 1 of 6 | survivor count [5]: 0 of 6

COc1cc(NC(C)=O)c2ncccc2c1
survivor count (dose: 400.0 mg/kg/injection, schedule: Q01DX009 (ip), vehicle: saline with Tween-80): 4 of 6

CCCCCC(CN(C)C)C(O)/C=C/c1ccccc1Cl (stereo unspecified)
survivor count [1]: 3 of 6 | survivor count [6]: 0 of 6 | survivor count [7]: 1 of 6

c1ccc([P+](c2ccccc2)(c2ccccc2)c2ccccc2)cc1
survivor count [4]: 2 of 6 | survivor count (dose: 20.0 mg/kg/injection, schedule: Q01DX001 (ip), vehicle: saline): 4 of 6 | survivor count (dose: 40.0 mg/kg/injection, schedule: Q01DX001 (ip), vehicle: saline): 2 of 6 | survivor count (dose: 80.0 mg/kg/injection, schedule: Q01DX001 (ip), vehicle: saline): 0 of 6 | survivor count (dose: 100.0 mg/kg/injection, schedule: Q01DX001 (ip), vehicle: saline): 0 of 4 | survivor count (dose: 200.0 mg/kg/injection, schedule: Q01DX001 (ip), vehicle: saline): 0 of 4 | survivor count [8]: 0 of 4

NC(CSCc1ccc(N(CCCl)CCCl)cc1)C(=O)O (stereo unspecified)
T/C (dose: 5.0 mg/kg/injection, schedule: Q01DX Z (ip), vehicle: carboxymethylcellulose (CMC)): 134 % of control | T/C (dose: 6.0 mg/kg/injection, schedule: Q01DX Z (ip), vehicle: other): 139 % of control | T/C (dose: 9.0 mg/kg/injection, schedule: Q01DX Z (ip), vehicle: other): 125 and 147 % of control (2×) | T/C (dose: 10.0 mg/kg/injection, schedule: Q01DX Z (ip), vehicle: carboxymethylcellulose (CMC)): 144 % of control | survivor count (dose: 20.0 mg/kg/injection, schedule: Q01DX001 (ip), vehicle: carboxymethylcellulose (CMC)): 2 of 6 | T/C (dose: 20.0 mg/kg/injection, schedule: Q01DX Z (ip), vehicle: other): 125 and 135 % of control | T/C (dose: 30.0 mg/kg/injection, schedule: Q01DX Z (ip), vehicle: other): 127 % of control | survivor count (dose: 80.0 mg/kg/injection, schedule: Q01DX Z (ip), vehicle: carboxymethylcellulose (CMC)): 1 of 6

NC(=O)CCl
survivor count [9]: 0 of 6 | survivor count [3]: 0 of 6

CCOC(C(=O)N(C)CCN(C)CCc1ccccc1)(c1ccccc1)c1ccccc1
survivor count [8]: 2 of 4

CC(C)c1ccc(C(=O)C2CC2)cc1
survivor count [10]: 6 of 6 | survivor count [11]: 2 of 6

CCCCCCNP(=O)(OCC)OCC
survivor count [5]: 2 of 4

Cc1cc(N(CCOS(C)(=O)=O)CCOS(C)(=O)=O)ccc1C=Nc1cc(Cl)c(O)c(Cl)c1
survivor count (dose: 100.0 mg/kg/injection, schedule: Q04DX003 (ip), vehicle: Klucel (hydroxypropylcellulose) (HPC)): 6 of 6 | survivor count [9]: 6 of 6 | survivor count [3]: 1 of 6

CC1=CC(=O)CC(c2ccc(N(C)C)cc2)C1 (stereo unspecified)
survivor count (dose: 160.0 mg/kg/injection, schedule: Q04DX002 (ip), vehicle: saline with Tween-80): 3 of 3 | survivor count (dose: 400.0 mg/kg/injection, schedule: Q04DX002 (ip), vehicle: saline with Tween-80): 3 of 3

COC1/C=C/O[C@@]2(C)Oc3c(C)c(O)c4c(O)c(cc(O)c4c3C2=O)NC(=O)/C(C)=C\C=C\[C@H](C)C(O)[C@@H](C)[C@@H](O)[C@@H](C)[C@H](OC(C)=O)[C@@H]1C (stereo partly specified)
survivor count (dose: 256.0 mg/kg/injection, schedule: Q03HX040 (ip), vehicle: saline): 10 of 10 | survivor count (dose: 1024.0 mg/kg/injection, schedule: Q03HX040 (ip), vehicle: saline): 8 of 10

Cc1ccc(NC(=O)Oc2cccnc2)cc1
survivor count (dose: 100.0 mg/kg/injection, schedule: Q01DX009 (ip), vehicle: Klucel (hydroxypropylcellulose) (HPC)): 3 of 6 | survivor count [10]: 4 of 6 | survivor count [11]: 0 of 6

Cc1ccc(CCC(=O)O)c2ccccc12
survivor count (dose: 400.0 mg/kg/injection, schedule: Q04DX002 (ip), vehicle: Klucel (hydroxypropylcellulose) (HPC)): 2 of 3

CCC(C)[Se][Se]C(C)CC (stereo unspecified)
survivor count [6]: 6 of 6 | survivor count [7]: 6 of 6

O=S(=O)(/C=C/c1ccccc1)Oc1ccc(-c2ccccc2)cc1
survivor count (dose: 200.0 mg/kg/injection, schedule: Q01DX009 (ip), vehicle: acetone): 6 of 6

From PubChem BioAssay AID248 (DTP/NCI, 2004)
